Source: patent publication US20230250557A1 (published 2023)
Results are given in words; binding and its absence hold for the method and conditions named. Some binding calls cover weakened binding; strength is not graded here.

B1: 3-10H (designed binder)
chain: GSHMVSGKIVVIGSSTGGPRSLDMIIPNLPKNFPAPIVVVQHGNYATGWTTSGTKSLAQRLDSTSELTVKEAEDGEEVKPGFVYIAPGDFHLGLKAQNGKVFFFLDKSGLDWGWWAWGVRPAVDFTLDKAAEIYKEKTIAVILTGGWESGDYTGGDGTKGAFKVKFYGGTVIAEDKETSVVFGMPKSVIEEGYADYVLPAYKIPEKLIELV
B2: 4-3E (designed binder)
chain: GSHMVSGKIVVIGSSTGGPRSLDMIIPNLPKNFPAPIVVVQHGWWSWGWRGWGTKSLAQRLDSTSELTVKEAEDGEEVKPGFVYIAPGDFHLGLKAQNGKVFFFLDKSGRTDWGYEYWGVRPAVDFTLDKAAEIYKEKTIAVILTGGAWEGSAYGGDGTKGAFKVKFYGGTVIAEDKETSVVFGMPKSVIEEGYADYVLPAYKIPEKLIELV
B3: 4-7D (designed binder)
chain: GSHMVSGKIVVIGSSTGGPRSLDMIIPNLPKNFPAPIVVVQHGHDWSGSSGWGTKSLAQRLDSTSELTVKEAEDGEEVKPGFVYIAPGDFHLGLKAQNGKVFFFLDKSGWVSWGWTNNGVRPAVDFTLDKAAEIYKEKTIAVILTGGRYEGVLLGGDGTKGAFKVKFYGGTVIAEDKETSVVFGMPKSVIEEGYADYVLPAYKIPEKLIELV
notes: CheBc scaffold clone from modified pQE-80L in E. coli, purified on cobalt resin, detected with anti-FLAG
B4: 4-9B (designed binder)
chain: GSHMVSGKIVVIGSSTGGPRSLDMIIPNLPKNFPAPIVVVQHGWYWGGVRGEGTKSLAQRLDSTSELTVKEAEDGEEVKPGFVYIAPGDFHLGLKAQNGKVFFFLDKSGDWYWGWGDWGVRPAVDFTLDKAAEIYKEKTIAVILTGGEDYGAADGGDGTKGAFKVKFYGGTVIAEDKETSVVFGMPKSVIEEGYADYVLPAYKIPEKLIELV
B5: 4-12B (designed binder)
chain: GSHMVSGKIVVIGSSTGGPRSLDMIIPNLPKNFPAPIVVVQHGWERVGLRLSGTKSLAQRLDSTSELTVKEAEDGEEVKPGFVYIAPGDFHLGLKAQNGKVFFFLDKSGAWAWGNVWWGVRPAVDFTLDKAAEIYKEKTIAVILTGGAWLGETVGGDGTKGAFKVKFYGGTVIAEDKETSVVFGMPKSVIEEGYADYVLPAYKIPEKLIELV

target: Biotinylated human HER2 antigen comprising a portion of the HER2 extracellular domain (Acro Biosystems) (human) (UniProt P04626); experiment: ELISA screen of clone lysates on coated antigen, anti-FLAG-HRP

binding, binds:
B1
B2
B3
B4
B5
